For 3 molecules, binding results are on record in paper PMC2294136.

Residue numbers refer to the chain shown, from its start. No constants are given. Whether binding was seen depends on the method and setting. In cells and extracts the contact can be indirect. Some results given as binding are weak or reduced against the parent protein; the word gives no strength. Sequences can lack the tags named with a protein.

The experiment addresses T1, HA-tagged Skp1 (S. pombe) (UniProt Q9Y709).
T1 sequence: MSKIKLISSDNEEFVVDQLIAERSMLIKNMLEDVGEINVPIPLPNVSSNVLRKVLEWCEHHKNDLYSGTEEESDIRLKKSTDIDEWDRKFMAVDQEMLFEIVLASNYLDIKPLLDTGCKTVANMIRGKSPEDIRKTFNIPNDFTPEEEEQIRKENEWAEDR
Description: co-IP; extracts of S. pombe fbh1Δ cells expressing HA-Skp1 and GFP-Fbh1 versions; immunoprecipitated with anti-HA antibody (12CA5) and protein G-agarose, 2 h at 4°C, buffer A (50 mM Tris-HCl pH 7.5, 15 mM EGTA, 100 mM NaCl, 0.1% Triton X-100, 1 mM DTT); western blot with anti-GFP or anti-HA.

B1: GFP-Fbh1 (wild type) (protein, UniProt Q9USU3 1-878)
chain: MSAQHLHSCKFYRLPLEIIPLICRFLSVQDIQSFIRVFPSFQTILDSSNDLFWKKKNYELRIRRNRLLRGSYAAGVSSSAMNGFVNGTQISSTPAEREYYSKSDEIKNICGLPPGPMKVEQIGHAIDHLVSETHTVDHLGSSIKASFFHIDDVPLEWISSICMQVQSFFSPAAREAISSLKSRTTTSNLLLSLFVGILFEDDLWYFFNTLYMLSSTSAIEFAYFLDSIFTVVRTDYEHYRDPLSQTLITSCTRIHNIVAVIESPYDEPNTKGLTSEQKMIVECQLNPGEVLKVKAFAGTGKTKALLEFAKSRPKDKILYVAFNKAAKEDAELRFPFNVKCSTMHGLAYGAILAQADLPQAKLERQLSNSTIASLLSLQVAFPKANRKNNPGTPSASLVASHIMFTLNRFMHSTDWQLGFRHISKRSLEVTKLSKEKLLAYTKKLWSLIVNFEYTHAPLIPDAYMKLLHLYEFPNIFSKYDYILFDEAQDFTPCMVDLIYRQKHARIVIVGDAHQCIYGFRGANACAFNENLYPSTKQLCLTKSFRFGNSVAKYANFLLSLKGENVKLKGVQNDHAYWSSASNPNNVSGAFRFFPHTIIFRTNKELILQSIRLSVSLPKEIPIAILGSMRKKAFQLLRSGSELAHGQRPSHPKLKDFSSWGEFEVHVKNSAEEDAELALVYDMADELFSESFLSRLDNCEKRLMDSKDDGDNGIILATAHQSKGLEWDNVQLGNDFRPKFDSVSFSRIGSSRYLQEEINILYVALTRAKKRLILNDTITKLYALECGLVRFAGGILTEDQLQPGKVALFVDWQIDKFSFFYETPAEGYNLLVEANEKSVWDIFFGVLSGAWQNYIANTSERLKRSMLFIENQLFAVHDQ
In the case of B1, the binding result was “binds”.

B2: GFP-Fbh1-hl (protein, UniProt Q9USU3 1-878)
chain: B1 chain with K301A
On to B2, for which the binding entry is “binds”.

B3: GFP-Fbh1-fb (protein, UniProt Q9USU3 1-878)
chain: B1 chain with P15A, L26A
On to B3, for which the binding entry is “no binding”.
